No constants are given. Whether binding was seen depends on the method and setting. In cells and extracts the contact can be indirect. Some binding calls cover weakened binding; strength is not graded here. For some assays here: Where a sequence is shown, tags or fusion partners need not be part of it.

Amino acid sequences for entries named in this document (tags omitted). A change or cut given only in a name is not applied to a line headed by its entry.
UniProt P15056: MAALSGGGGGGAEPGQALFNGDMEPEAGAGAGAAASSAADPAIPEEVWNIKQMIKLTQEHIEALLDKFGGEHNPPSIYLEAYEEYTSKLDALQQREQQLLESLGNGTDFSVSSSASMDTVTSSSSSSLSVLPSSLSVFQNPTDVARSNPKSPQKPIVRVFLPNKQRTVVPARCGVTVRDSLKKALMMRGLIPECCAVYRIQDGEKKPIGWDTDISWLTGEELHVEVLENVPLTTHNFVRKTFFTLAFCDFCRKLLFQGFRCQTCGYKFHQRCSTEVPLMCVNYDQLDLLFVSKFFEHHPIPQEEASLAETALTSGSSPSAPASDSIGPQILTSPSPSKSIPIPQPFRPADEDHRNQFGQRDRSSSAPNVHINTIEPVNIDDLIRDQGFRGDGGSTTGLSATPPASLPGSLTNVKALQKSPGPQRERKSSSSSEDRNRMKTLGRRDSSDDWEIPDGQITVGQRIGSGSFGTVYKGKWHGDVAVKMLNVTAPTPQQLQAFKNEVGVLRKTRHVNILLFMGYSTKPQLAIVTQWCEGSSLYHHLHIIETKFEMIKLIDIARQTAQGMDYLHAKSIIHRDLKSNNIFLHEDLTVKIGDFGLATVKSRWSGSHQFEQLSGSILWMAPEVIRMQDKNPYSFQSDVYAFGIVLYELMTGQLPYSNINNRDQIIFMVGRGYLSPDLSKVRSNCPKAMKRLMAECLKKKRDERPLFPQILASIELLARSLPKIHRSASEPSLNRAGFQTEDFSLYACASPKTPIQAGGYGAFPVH
UniProt O75592: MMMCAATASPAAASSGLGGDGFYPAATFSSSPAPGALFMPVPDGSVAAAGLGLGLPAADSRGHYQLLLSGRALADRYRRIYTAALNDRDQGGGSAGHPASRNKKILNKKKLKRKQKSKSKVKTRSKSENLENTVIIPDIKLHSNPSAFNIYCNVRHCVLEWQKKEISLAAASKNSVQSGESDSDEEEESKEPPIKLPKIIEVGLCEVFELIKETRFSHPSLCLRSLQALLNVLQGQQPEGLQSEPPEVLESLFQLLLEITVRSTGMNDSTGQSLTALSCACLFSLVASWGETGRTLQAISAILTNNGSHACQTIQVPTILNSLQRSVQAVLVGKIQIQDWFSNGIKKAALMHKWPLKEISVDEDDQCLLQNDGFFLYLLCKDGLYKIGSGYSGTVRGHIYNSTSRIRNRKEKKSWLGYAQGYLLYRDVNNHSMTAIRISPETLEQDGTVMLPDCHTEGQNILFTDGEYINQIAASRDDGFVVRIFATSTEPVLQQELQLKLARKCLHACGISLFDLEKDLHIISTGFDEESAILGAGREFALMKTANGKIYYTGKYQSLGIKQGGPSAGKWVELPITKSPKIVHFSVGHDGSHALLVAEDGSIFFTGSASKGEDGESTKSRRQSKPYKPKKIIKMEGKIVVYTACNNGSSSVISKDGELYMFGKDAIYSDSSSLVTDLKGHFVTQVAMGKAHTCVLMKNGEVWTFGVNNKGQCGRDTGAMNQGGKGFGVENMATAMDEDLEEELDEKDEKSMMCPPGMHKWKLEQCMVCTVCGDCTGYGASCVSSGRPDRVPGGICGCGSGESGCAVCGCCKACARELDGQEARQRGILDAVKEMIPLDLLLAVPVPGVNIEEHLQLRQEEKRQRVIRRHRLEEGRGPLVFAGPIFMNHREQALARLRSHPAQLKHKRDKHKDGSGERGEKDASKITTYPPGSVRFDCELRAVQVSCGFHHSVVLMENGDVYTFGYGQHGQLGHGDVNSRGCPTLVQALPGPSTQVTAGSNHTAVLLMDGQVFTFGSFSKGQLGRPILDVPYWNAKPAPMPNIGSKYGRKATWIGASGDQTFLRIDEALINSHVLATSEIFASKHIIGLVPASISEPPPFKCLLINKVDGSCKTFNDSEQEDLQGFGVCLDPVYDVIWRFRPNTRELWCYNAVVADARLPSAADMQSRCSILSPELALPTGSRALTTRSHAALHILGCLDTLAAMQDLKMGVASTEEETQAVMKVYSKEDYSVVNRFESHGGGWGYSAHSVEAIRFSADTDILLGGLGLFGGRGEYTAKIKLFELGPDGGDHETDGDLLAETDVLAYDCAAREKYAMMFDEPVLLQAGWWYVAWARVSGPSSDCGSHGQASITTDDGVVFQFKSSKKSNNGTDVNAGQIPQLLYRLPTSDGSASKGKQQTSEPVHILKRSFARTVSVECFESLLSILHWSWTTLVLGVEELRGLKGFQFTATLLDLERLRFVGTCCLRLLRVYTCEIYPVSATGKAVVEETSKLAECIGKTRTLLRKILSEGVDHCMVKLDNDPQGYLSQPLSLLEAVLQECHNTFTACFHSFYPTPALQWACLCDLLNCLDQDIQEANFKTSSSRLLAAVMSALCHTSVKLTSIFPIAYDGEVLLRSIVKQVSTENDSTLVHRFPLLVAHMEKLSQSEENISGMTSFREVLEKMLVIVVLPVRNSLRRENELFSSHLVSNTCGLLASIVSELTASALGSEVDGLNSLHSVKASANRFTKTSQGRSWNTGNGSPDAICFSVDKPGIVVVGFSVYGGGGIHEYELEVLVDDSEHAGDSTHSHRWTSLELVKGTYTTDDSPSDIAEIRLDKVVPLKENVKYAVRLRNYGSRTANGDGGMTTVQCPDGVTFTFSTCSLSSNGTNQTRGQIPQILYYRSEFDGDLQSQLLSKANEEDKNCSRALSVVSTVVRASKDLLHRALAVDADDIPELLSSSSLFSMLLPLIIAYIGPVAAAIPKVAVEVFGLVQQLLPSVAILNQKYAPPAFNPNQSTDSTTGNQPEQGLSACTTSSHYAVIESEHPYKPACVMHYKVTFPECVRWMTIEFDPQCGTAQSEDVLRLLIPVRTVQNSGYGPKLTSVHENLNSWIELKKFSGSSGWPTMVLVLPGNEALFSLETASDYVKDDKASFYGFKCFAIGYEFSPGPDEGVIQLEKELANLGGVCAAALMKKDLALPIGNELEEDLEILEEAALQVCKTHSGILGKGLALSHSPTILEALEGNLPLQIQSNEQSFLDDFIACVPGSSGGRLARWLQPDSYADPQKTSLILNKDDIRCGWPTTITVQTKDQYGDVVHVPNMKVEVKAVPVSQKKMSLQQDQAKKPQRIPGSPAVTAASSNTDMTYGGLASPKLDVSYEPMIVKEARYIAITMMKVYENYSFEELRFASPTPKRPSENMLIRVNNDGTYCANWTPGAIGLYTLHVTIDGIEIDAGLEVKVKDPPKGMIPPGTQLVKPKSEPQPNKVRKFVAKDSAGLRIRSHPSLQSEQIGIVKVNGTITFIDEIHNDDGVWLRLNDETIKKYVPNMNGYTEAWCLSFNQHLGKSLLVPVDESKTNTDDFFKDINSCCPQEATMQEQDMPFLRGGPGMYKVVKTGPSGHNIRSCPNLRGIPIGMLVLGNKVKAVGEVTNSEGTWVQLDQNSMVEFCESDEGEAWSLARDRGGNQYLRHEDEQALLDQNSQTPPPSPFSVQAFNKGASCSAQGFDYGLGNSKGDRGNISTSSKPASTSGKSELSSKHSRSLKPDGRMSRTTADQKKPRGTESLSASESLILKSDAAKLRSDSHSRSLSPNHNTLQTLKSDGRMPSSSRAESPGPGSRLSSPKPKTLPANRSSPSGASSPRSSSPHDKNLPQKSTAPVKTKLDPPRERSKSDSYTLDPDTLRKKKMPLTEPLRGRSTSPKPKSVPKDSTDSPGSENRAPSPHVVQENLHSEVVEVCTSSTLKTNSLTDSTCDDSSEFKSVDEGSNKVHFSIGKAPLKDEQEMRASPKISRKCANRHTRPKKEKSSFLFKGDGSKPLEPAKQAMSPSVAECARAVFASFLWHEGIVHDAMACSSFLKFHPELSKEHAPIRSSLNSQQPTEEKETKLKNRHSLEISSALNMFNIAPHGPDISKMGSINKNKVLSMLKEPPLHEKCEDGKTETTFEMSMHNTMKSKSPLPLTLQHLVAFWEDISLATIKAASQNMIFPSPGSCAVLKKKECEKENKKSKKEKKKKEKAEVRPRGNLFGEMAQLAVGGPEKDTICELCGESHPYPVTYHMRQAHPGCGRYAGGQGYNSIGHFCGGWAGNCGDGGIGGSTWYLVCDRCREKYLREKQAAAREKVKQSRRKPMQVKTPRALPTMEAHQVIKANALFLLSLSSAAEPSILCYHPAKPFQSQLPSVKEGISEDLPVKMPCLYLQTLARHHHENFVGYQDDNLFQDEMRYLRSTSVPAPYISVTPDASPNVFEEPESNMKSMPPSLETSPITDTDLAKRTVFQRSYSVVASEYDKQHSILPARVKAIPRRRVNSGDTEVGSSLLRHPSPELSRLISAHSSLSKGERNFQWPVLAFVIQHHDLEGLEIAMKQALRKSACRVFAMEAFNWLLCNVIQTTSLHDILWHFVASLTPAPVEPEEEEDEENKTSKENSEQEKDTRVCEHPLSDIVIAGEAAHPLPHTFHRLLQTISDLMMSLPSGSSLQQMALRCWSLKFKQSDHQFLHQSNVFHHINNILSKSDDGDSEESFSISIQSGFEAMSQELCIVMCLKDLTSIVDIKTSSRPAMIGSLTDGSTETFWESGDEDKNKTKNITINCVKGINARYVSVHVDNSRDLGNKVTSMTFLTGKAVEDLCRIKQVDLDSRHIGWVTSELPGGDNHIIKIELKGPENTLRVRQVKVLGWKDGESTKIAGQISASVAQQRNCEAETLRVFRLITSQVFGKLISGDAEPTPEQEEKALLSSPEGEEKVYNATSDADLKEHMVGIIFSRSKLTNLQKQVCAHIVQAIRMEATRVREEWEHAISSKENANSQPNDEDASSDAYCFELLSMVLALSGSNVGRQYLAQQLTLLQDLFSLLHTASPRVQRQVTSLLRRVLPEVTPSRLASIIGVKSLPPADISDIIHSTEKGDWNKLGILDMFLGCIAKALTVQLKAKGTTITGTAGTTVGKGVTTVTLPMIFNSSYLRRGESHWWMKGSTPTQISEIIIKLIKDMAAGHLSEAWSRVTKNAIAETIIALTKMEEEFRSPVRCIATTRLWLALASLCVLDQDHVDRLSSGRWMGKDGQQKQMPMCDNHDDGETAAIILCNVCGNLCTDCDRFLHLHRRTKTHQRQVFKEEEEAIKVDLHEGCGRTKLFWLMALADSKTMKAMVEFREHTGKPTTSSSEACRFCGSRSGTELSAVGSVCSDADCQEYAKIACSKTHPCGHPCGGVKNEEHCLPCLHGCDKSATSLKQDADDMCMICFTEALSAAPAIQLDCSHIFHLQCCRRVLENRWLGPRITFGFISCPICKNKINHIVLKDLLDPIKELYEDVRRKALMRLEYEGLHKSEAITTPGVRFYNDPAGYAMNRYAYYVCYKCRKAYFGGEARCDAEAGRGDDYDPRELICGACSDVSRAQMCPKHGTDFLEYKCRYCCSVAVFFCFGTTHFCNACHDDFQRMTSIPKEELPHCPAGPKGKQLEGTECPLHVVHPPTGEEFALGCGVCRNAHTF

For assay [1], the target named is T1, MST2 (endogenous) (human (endogenous in HeLa, A375, SK-Mel28, WM-793, SK-Mel2)) (UniProt Q13188).
T1 sequence: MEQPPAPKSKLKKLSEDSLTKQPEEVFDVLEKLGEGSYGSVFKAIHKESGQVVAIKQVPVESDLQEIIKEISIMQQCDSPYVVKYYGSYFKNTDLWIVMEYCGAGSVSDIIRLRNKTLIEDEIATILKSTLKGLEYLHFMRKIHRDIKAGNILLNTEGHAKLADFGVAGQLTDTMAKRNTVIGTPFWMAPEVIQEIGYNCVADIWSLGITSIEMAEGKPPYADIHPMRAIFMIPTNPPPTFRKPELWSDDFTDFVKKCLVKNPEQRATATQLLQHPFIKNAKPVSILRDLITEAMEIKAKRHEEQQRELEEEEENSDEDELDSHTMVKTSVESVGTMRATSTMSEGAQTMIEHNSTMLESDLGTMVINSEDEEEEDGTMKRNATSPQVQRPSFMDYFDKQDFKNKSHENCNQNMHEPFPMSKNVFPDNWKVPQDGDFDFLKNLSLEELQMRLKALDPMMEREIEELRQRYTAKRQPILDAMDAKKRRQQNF
Kind of assay: co-IP; endogenous MST2 or BRAF^V600E (mutant specific antibody) precipitated from lysates of A375, SK-Mel28, WM-793 and SK-Mel2 cells, untreated or treated with PLX4032; in A375 also BRAF precipitated after dabrafenib, encorafenib, sorafenib or TAK-632 (Fig S1A); blots for BRAF and MST2.

The target of assay [2] is T2, FLAG-MST2 (UniProt Q13188).
T2 sequence: T1 sequence
Kind of assay: co-IP; FLAG-MST2 precipitated with FLAG beads from parental and resistant cells 48 h after transfection; blot for endogenous MYCBP2.

For the substance “BRAF^V600E (endogenous, mutant BRAF melanoma cells) (from UniProt P15056 1-766)”, in assay [1], the binding entry was “binds”. Consider “MYCBP2 (endogenous) (from UniProt O75592 1-4678)”, for which, in assay [2], the binding result was “binds”.

The record behind these values is publication PMC9434705.
